From PMC5461506, “Strength of Neisseria meningitidis binding to endothelial cells requires highly-ordered CD147/β2-adrenoceptor clusters assembled by alpha-actinin-4” (Nature Communications, 2017)
No constants are given. Whether binding was seen depends on the method and setting. In cells and extracts the contact can be indirect. A result given as binding can be weak or reduced; the word gives no strength.

Sequences of proteins named here, by UniProt entry; tags and fusion partners are left off. A change or cut given only in a name is not applied to a line headed by its entry.
UniProt P35613: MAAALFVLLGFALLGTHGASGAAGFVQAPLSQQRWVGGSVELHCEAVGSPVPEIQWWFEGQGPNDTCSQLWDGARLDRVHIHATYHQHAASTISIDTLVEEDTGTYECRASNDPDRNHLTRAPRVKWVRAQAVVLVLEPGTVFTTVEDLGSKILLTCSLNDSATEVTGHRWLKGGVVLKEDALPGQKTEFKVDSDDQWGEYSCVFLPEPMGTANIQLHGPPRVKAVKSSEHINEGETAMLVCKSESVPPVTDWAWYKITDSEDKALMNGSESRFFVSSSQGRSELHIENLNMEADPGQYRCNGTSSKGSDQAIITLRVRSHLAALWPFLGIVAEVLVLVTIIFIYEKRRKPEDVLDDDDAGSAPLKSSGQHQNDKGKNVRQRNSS
UniProt O43707: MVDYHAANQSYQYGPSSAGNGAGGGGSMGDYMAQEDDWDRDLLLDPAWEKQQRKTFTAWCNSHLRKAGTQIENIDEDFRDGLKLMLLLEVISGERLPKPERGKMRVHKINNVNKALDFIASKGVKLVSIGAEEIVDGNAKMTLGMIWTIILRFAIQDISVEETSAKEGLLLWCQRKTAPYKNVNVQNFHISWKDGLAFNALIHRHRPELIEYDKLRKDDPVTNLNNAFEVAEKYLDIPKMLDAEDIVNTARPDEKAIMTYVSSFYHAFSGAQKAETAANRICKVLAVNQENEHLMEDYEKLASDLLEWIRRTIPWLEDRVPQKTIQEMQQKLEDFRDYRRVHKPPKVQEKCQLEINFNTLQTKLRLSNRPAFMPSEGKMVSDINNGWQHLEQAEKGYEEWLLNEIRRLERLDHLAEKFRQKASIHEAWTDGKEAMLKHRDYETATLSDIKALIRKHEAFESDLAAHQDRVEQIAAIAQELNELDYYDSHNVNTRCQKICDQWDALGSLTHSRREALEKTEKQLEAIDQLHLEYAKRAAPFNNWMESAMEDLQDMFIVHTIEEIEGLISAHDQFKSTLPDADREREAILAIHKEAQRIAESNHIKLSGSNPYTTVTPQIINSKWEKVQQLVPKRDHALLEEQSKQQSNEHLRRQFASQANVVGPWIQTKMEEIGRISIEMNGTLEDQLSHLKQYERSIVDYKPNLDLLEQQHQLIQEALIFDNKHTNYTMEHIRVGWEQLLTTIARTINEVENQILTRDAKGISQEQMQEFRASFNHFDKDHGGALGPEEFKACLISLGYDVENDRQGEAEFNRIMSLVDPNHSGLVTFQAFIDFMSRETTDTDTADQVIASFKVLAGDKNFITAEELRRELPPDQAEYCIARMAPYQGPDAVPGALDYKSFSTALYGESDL

Tests used:
[1] = target: CD147 (endogenous, HBMECs) (human (endogenous in HBMEC)) (UniProt P35613); assay: co-IP; endogenous CD147 immunoprecipitated from HBMEC lysates (1% n-dodecyl β-D-maltoside), non-infected or infected with meningococci for the indicated times; blot with anti-Actn4
[2] = target: CD147 fused to Renilla luciferase (CD147-Rluc) (human) (UniProt P35613); assay: FRET or BRET; BRET saturation in living HEK293 cells: 2 ng donor plasmid (CD147-Rluc or 5 ng CD147ΔD2-Rluc), 0-400 ng acceptor plasmid (YFP fusion), coelenterazine h 5 μM, 24 h after transfection
[3] = target: CD147 fused to the N-terminal fragment of Renilla luciferase (CD147-L1) (human) (UniProt P35613); assay: split reporter; Renilla luciferase (Rluc8) complementation of L1 (1-229) and L2 (230-311) fusions co-transfected in HEK293 cells, coelenterazine h, 24 h after transfection

“α-actinin-4 (endogenous, HBMECs) (from UniProt O43707 1-911)” was tested, and the binding [1] was “binds”.

With “β2-adrenergic receptor fused to the yellow fluorescent protein (β2AR-YFP) (from UniProt P07550 1-413)” the binding [2] was “binds”.

For “β2AR fused to the C-terminal fragment of Renilla luciferase (β2AR-L2) (from UniProt P07550 1-413) (receptor)”, the binding [3] was “binds”.
